{"source": "patent US20230277570A1", "about": "“ENPP1 Inhibitors and Their Use for the Treatment of Cancer” (The Board of Trustees of the Leland Stanford Junior …, priority 2017, published 2023)", "key": {"4T1-luciferase tumor": {"test_system": "4T1-luciferase tumor", "assay": "Tumor-associated dendritic cells in mouse 4T1 tumor model (FACS)", "assay_type": "in vivo, Balb/c mice", "details": "intratumoral 100 μL of 1 mM"}, "human CD14+ monocytes": {"test_system": "human CD14+ monocytes", "assay": "Supernatant transfer from 293T cGAS ENPP1low cells to primary CD14+ monocytes, IFNB1 RT-PCR", "assay_type": "cell-based"}}, "note": "For at least one compound, name, drawing or mass did not settle the structure.", "data": [{"smiles": "COc1cc2ncnc(N3CCC(CCP(=O)(O)O)CC3)c2cc1OC", "note": "[Compound 1, dimethyl (2-(1-(6,7-dimethoxyquinazolin-4-yl)piperidin-4-yl)ethyl)phosphonic acid]", "values": [{"measurement": "tumor-associated leukocyte compositions", "setting": "4T1-luciferase tumor; no IR, compared to the PBS control", "value": "did not change"}, {"measurement": "tumor associated CD11c+ population", "setting": "4T1-luciferase tumor; tumors pretreated with 20 Gy IR", "value": "increased"}, {"measurement": "extracellular cGAMP levels", "setting": "human CD14+ monocytes; 293T cGAS ENPP1low cells with transient overexpression of ENPP1", "value": "rescued"}, {"measurement": "CD14+ IFNB1 expression", "setting": "human CD14+ monocytes; supernatant of ENPP1-overexpressing 293T cGAS ENPP1low cells transferred to CD14+ monocytes", "value": "induced"}]}]}
